Counter-ions that a name gives are not always drawn. Some of the results follow. The calls rarely recur for the same compound in another form.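 In K562 cells expressing nanoluciferase-fused kinases, luminescence was recorded at 4 h intervals between 2 and 18 h, normalized as percent of control with DMSO at 100% and a positive control at 0%. A significant (2 sigma) signal drop marks a time point as decreased. The authors' rule for a hit is not shown and takes in more than the number of time points.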
Tests used:
Details in all cases: K562, 2-18 h
[1] = biological target: RET (UniProt P07949); test: kinase-Nluc reporter destabilization hit call (1 = scored as downregulated) (binary); higher = compound decreases kinase abundance
[2] = biological target: RET_M918T (clone: RET_mut) (UniProt P07949); test: as above
[3] = biological target: RIOK1 (UniProt Q9BRS2); test: as above
[4] = biological target: RIPK1 (UniProt Q13546); test: as above
[5] = biological target: RIPK2 (UniProt O43353); test: as above
[6] = biological target: ROR2 (UniProt Q01974); test: as above
[7] = biological target: RPS6KA1 (UniProt Q15418); test: as above
[8] = biological target: SPHK1 (UniProt Q9NYA1); test: as above
[9] = biological target: SRC (UniProt P12931); test: as above
[10] = biological target: STK24 (UniProt Q9Y6E0); test: as above
[11] = biological target: STK38 (UniProt Q15208); test: as above
[12] = biological target: SYK (UniProt P43405); test: as above
[13] = biological target: TEC (UniProt P42680); test: as above
[14] = biological target: TYK2 (UniProt P29597); test: as above
[15] = biological target: ULK3 (UniProt Q6PHR2); test: as above
[16] = biological target: YES1 (UniProt P07947); test: as above
[17] = biological target: ZAK (UniProt Q9NYL2); test: as above
[18] = biological target: ZAP70 (UniProt P43403); test: as above
[19] = biological target: CDK4 (UniProt P11802); test: number of time points (of 4; 2 h point missing) at which kinase-Nluc abundance scored as decreased, DMSO-normalised (count); higher = more persistent destabilization
[20] = biological target: CDK7 (UniProt P50613); test: as above

Protein sequences, listed by entry. Tags and fused reporters are not part of them. Lines headed by an entry give the natural chain unless they say otherwise; changes in a name come on top.
UniProt Q9BRS2: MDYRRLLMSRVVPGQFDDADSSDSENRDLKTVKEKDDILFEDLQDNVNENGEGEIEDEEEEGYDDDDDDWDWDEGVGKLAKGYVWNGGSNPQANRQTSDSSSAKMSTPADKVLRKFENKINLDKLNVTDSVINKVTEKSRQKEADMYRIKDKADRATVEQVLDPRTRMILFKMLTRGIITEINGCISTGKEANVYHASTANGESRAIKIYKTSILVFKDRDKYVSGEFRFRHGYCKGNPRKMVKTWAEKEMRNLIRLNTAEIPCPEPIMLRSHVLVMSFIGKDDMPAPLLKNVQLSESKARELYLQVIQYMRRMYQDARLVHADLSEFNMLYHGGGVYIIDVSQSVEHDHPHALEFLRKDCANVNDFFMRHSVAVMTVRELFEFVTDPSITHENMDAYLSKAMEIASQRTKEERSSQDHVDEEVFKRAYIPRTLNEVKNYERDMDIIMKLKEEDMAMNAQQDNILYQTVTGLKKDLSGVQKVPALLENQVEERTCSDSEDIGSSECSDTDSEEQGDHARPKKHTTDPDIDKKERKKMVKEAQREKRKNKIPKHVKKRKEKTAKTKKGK
UniProt Q13546: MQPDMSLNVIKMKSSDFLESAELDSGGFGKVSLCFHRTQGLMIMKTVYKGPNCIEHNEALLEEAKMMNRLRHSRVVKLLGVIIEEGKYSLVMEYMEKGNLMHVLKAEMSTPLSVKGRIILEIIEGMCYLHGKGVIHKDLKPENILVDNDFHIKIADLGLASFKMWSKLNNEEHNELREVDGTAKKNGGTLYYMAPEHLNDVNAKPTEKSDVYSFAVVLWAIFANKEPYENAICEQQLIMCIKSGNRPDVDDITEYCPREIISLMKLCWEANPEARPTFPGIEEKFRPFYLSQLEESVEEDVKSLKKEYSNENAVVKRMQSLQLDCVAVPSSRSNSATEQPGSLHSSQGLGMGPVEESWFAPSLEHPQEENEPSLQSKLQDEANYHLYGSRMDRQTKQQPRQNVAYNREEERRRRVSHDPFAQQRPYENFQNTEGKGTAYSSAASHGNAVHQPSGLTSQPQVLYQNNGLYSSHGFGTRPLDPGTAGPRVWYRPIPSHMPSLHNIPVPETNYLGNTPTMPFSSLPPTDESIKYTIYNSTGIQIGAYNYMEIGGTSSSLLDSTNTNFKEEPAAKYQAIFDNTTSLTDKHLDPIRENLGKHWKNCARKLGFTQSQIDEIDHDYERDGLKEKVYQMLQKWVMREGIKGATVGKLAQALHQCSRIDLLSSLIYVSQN
UniProt Q15418, whole entry: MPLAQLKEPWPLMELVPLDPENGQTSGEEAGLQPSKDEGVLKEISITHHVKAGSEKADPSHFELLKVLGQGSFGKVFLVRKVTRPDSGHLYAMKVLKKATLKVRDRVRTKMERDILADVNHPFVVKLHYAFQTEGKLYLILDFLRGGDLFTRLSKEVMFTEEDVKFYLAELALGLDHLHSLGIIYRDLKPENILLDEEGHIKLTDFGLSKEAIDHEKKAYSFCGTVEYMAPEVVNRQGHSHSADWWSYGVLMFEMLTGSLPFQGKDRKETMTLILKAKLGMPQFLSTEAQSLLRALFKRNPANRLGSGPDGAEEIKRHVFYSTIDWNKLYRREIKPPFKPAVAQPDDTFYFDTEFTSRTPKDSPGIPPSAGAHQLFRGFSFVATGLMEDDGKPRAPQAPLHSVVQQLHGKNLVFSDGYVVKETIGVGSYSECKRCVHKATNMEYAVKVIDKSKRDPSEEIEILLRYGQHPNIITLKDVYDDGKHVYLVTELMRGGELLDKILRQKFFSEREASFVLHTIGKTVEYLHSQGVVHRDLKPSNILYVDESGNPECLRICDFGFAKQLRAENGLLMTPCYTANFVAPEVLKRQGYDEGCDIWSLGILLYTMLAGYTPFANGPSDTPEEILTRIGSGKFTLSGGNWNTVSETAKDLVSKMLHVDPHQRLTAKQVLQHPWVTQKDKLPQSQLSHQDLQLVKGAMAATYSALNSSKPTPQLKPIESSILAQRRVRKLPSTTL
UniProt Q9Y6E0: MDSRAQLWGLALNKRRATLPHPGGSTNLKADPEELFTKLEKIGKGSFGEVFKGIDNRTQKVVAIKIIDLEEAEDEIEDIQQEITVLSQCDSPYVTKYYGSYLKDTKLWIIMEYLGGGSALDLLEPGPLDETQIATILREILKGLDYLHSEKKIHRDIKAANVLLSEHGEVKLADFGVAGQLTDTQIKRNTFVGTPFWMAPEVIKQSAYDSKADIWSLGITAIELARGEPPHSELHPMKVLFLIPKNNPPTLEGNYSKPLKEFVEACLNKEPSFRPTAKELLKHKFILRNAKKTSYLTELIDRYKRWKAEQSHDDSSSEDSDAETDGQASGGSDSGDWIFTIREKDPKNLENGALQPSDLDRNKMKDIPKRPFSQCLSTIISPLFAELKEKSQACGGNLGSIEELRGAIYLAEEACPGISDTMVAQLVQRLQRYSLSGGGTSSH
UniProt Q15208: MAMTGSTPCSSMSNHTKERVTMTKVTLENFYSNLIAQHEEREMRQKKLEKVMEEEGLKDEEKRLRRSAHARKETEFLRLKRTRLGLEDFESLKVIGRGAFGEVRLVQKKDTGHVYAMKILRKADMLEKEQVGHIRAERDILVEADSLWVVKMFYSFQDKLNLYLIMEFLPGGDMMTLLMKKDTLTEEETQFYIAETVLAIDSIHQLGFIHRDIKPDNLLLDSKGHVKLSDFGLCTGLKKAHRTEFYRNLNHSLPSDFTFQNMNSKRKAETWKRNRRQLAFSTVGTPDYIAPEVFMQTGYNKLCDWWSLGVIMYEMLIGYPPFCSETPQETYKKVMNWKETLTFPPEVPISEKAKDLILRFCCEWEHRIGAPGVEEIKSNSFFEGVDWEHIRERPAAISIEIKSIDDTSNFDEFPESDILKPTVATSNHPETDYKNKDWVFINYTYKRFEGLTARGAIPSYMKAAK
UniProt P42680: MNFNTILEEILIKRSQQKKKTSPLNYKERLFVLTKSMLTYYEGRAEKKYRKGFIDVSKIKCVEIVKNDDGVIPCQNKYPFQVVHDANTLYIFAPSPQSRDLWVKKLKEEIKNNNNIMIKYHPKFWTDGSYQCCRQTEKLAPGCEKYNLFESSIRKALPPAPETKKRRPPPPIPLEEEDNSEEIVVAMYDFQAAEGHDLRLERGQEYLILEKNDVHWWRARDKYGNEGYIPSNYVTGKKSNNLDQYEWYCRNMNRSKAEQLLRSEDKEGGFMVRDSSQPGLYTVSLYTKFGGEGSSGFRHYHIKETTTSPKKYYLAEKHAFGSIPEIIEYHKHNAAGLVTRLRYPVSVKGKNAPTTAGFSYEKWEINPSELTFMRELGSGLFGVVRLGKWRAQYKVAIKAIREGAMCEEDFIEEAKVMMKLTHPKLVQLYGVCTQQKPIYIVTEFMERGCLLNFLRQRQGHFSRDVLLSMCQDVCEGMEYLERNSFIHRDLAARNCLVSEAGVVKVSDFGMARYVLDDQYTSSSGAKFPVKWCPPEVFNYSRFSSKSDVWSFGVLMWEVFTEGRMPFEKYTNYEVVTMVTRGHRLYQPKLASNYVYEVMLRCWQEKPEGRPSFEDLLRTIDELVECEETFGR
UniProt P29597: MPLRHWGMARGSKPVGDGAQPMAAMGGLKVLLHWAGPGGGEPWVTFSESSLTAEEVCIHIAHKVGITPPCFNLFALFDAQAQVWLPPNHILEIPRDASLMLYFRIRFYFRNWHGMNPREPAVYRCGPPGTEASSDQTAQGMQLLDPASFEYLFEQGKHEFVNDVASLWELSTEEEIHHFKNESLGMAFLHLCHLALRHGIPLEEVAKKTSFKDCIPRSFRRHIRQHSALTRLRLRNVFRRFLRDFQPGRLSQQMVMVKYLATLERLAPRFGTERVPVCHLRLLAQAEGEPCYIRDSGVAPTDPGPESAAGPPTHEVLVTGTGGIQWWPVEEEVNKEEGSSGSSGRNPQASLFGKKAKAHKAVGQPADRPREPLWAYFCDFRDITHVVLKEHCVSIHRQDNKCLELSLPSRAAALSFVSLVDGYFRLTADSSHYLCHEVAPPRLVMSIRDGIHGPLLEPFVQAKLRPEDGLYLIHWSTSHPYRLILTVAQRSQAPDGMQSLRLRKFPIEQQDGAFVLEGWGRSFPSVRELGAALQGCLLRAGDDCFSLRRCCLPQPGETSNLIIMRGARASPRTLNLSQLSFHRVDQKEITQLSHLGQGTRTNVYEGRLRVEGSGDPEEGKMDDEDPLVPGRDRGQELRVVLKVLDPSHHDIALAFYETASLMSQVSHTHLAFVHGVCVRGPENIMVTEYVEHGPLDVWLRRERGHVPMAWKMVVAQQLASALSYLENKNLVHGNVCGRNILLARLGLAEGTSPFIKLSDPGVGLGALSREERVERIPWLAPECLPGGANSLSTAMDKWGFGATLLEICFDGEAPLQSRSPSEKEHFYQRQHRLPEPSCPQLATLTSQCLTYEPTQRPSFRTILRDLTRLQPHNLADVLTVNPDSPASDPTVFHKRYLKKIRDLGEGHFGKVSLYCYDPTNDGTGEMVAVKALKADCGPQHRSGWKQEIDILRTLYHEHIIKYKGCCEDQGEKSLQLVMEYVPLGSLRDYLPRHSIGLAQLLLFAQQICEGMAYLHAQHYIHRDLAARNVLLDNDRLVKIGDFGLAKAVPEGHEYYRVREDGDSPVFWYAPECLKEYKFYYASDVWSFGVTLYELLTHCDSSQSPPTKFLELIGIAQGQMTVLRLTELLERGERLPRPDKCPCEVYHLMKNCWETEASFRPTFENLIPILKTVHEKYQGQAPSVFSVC
UniProt Q6PHR2: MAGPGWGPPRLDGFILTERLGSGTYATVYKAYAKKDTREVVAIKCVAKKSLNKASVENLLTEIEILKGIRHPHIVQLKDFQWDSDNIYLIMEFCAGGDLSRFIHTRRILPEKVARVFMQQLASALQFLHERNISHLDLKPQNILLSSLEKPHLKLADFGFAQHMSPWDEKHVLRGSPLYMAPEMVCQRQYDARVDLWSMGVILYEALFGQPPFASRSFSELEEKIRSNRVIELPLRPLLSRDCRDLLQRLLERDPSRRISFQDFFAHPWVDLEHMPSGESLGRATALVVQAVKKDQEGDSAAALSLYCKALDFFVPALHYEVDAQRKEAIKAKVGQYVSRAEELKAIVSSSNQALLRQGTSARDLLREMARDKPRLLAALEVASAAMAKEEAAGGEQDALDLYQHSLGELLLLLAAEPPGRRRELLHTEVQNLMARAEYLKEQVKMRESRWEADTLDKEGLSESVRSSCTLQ
UniProt P07947, whole entry, looked up: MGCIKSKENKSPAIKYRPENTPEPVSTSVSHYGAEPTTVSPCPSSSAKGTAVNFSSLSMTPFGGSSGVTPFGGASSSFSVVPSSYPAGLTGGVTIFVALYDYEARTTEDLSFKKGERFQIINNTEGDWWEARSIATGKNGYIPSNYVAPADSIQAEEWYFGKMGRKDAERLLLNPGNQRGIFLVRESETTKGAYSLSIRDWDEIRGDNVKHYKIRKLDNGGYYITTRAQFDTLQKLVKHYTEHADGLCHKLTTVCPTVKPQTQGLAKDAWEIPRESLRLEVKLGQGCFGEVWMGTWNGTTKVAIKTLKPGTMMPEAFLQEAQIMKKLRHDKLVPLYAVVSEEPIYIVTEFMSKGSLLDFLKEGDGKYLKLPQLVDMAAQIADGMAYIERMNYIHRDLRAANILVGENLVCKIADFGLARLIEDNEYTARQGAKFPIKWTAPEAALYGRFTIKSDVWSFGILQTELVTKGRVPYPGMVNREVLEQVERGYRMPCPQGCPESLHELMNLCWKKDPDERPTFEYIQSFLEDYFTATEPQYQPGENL
UniProt P11802: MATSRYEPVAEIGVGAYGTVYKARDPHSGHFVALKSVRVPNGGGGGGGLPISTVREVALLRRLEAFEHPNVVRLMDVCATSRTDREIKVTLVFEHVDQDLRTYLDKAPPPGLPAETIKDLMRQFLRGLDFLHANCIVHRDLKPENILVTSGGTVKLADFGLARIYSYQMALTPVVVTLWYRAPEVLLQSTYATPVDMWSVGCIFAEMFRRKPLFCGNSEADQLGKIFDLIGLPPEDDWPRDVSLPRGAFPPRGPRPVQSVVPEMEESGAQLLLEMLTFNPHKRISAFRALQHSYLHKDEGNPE
UniProt P50613: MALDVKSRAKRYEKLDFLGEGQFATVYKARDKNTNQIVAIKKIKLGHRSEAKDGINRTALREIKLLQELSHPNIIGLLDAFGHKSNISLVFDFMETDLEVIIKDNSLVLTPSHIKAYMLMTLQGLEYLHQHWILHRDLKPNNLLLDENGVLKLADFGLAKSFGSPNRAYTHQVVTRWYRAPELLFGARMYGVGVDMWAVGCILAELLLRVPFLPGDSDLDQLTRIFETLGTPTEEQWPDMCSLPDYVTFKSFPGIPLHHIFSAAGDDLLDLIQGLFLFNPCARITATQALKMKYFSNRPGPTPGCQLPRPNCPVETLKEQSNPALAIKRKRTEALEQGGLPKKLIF

CN(C)C(=O)c1cc2cnc(Nc3ccc(N4CCNCC4)cn3)nc2n1C1CCCC1 [Ribociclib succinate hydrate]
inactive: kinase-Nluc reporter destabilization hit call ([1]; 2.5 µM) 0 | kinase-Nluc reporter destabilization hit call ([2]; 2.5 µM) 0 | kinase-Nluc reporter destabilization hit call ([3]; 2.5 µM) 0 | kinase-Nluc reporter destabilization hit call ([4]; 2.5 µM) 0 | kinase-Nluc reporter destabilization hit call ([5]; 2.5 µM) 0 | kinase-Nluc reporter destabilization hit call ([6]; 2.5 µM) 0 | kinase-Nluc reporter destabilization hit call ([7]; 2.5 µM) 0 | kinase-Nluc reporter destabilization hit call ([8]; 2.5 µM) 0 | kinase-Nluc reporter destabilization hit call ([9]; 2.5 µM) 0 | kinase-Nluc reporter destabilization hit call ([10]; 2.5 µM) 0 | kinase-Nluc reporter destabilization hit call ([11]; 2.5 µM) 0 | kinase-Nluc reporter destabilization hit call ([12]; 2.5 µM) 0 | kinase-Nluc reporter destabilization hit call ([13]; 2.5 µM) 0 | kinase-Nluc reporter destabilization hit call ([14]; 2.5 µM) 0 | kinase-Nluc reporter destabilization hit call ([15]; 2.5 µM) 0 | kinase-Nluc reporter destabilization hit call ([16]; 2.5 µM) 0 | kinase-Nluc reporter destabilization hit call ([17]; 2.5 µM) 0 | kinase-Nluc reporter destabilization hit call ([18]; 2.5 µM) 0
0: number of time points ([19]; 2.5 µM) | number of time points ([20]; 2.5 µM)

COc1ncc(F)cc1CNc1ccc(Cc2c[nH]c3ncc(C)cc23)c(F)n1 [PLX5622 (hemifumarate)]
inactive: kinase-Nluc reporter destabilization hit call ([1]; 10 µM) 0 | kinase-Nluc reporter destabilization hit call ([2]; 10 µM) 0 | kinase-Nluc reporter destabilization hit call ([3]; 10 µM) 0 | kinase-Nluc reporter destabilization hit call ([4]; 10 µM) 0 | kinase-Nluc reporter destabilization hit call ([5]; 10 µM) 0 | kinase-Nluc reporter destabilization hit call ([6]; 10 µM) 0 | kinase-Nluc reporter destabilization hit call ([7]; 10 µM) 0 | kinase-Nluc reporter destabilization hit call ([8]; 10 µM) 0 | kinase-Nluc reporter destabilization hit call ([9]; 10 µM) 0 | kinase-Nluc reporter destabilization hit call ([10]; 10 µM) 0 | kinase-Nluc reporter destabilization hit call ([11]; 10 µM) 0 | kinase-Nluc reporter destabilization hit call ([12]; 10 µM) 0 | kinase-Nluc reporter destabilization hit call ([13]; 10 µM) 0 | kinase-Nluc reporter destabilization hit call ([14]; 10 µM) 0 | kinase-Nluc reporter destabilization hit call ([15]; 10 µM) 0 | kinase-Nluc reporter destabilization hit call ([16]; 10 µM) 0 | kinase-Nluc reporter destabilization hit call ([17]; 10 µM) 0 | kinase-Nluc reporter destabilization hit call ([18]; 10 µM) 0
0: number of time points ([19]; 10 µM) | number of time points ([20]; 10 µM)

C#Cc1cccc(Nc2ncnc3cc(OCCOC)c(OCCO)cc23)c1 [Desmethyl Erlotinib]
inactive: kinase-Nluc reporter destabilization hit call ([1]; 10 µM) 0 | kinase-Nluc reporter destabilization hit call ([2]; 10 µM) 0 | kinase-Nluc reporter destabilization hit call ([3]; 10 µM) 0 | kinase-Nluc reporter destabilization hit call ([4]; 10 µM) 0 | kinase-Nluc reporter destabilization hit call ([5]; 10 µM) 0 | kinase-Nluc reporter destabilization hit call ([6]; 10 µM) 0 | kinase-Nluc reporter destabilization hit call ([7]; 10 µM) 0 | kinase-Nluc reporter destabilization hit call ([8]; 10 µM) 0 | kinase-Nluc reporter destabilization hit call ([9]; 10 µM) 0 | kinase-Nluc reporter destabilization hit call ([10]; 10 µM) 0 | kinase-Nluc reporter destabilization hit call ([11]; 10 µM) 0 | kinase-Nluc reporter destabilization hit call ([12]; 10 µM) 0 | kinase-Nluc reporter destabilization hit call ([13]; 10 µM) 0 | kinase-Nluc reporter destabilization hit call ([14]; 10 µM) 0 | kinase-Nluc reporter destabilization hit call ([15]; 10 µM) 0 | kinase-Nluc reporter destabilization hit call ([16]; 10 µM) 0 | kinase-Nluc reporter destabilization hit call ([17]; 10 µM) 0 | kinase-Nluc reporter destabilization hit call ([18]; 10 µM) 0
0: number of time points ([19]; 10 µM) | number of time points ([20]; 10 µM)

Oc1cccc(-c2nc(N3CCOCC3)c3oc4ncccc4c3n2)c1 [PI-103 (Hydrochloride)]
inactive: kinase-Nluc reporter destabilization hit call ([1]; 2.5 µM) 0 | kinase-Nluc reporter destabilization hit call ([2]; 2.5 µM) 0 | kinase-Nluc reporter destabilization hit call ([3]; 2.5 µM) 0 | kinase-Nluc reporter destabilization hit call ([4]; 2.5 µM) 0 | kinase-Nluc reporter destabilization hit call ([5]; 2.5 µM) 0 | kinase-Nluc reporter destabilization hit call ([6]; 2.5 µM) 0 | kinase-Nluc reporter destabilization hit call ([7]; 2.5 µM) 0 | kinase-Nluc reporter destabilization hit call ([8]; 2.5 µM) 0 | kinase-Nluc reporter destabilization hit call ([9]; 2.5 µM) 0 | kinase-Nluc reporter destabilization hit call ([10]; 2.5 µM) 0 | kinase-Nluc reporter destabilization hit call ([11]; 2.5 µM) 0 | kinase-Nluc reporter destabilization hit call ([12]; 2.5 µM) 0 | kinase-Nluc reporter destabilization hit call ([13]; 2.5 µM) 0 | kinase-Nluc reporter destabilization hit call ([14]; 2.5 µM) 0 | kinase-Nluc reporter destabilization hit call ([15]; 2.5 µM) 0 | kinase-Nluc reporter destabilization hit call ([16]; 2.5 µM) 0 | kinase-Nluc reporter destabilization hit call ([17]; 2.5 µM) 0 | kinase-Nluc reporter destabilization hit call ([18]; 2.5 µM) 0
0: number of time points ([19]; 2.5 µM) | number of time points ([20]; 2.5 µM)

Cc1cccc(/C=N/Nc2cc(N3CCOCC3)nc(OCCc3ccccn3)n2)c1 [Apilimod]
inactive: kinase-Nluc reporter destabilization hit call ([1]; 2.5 µM) 0 | kinase-Nluc reporter destabilization hit call ([2]; 2.5 µM) 0 | kinase-Nluc reporter destabilization hit call ([3]; 2.5 µM) 0 | kinase-Nluc reporter destabilization hit call ([4]; 2.5 µM) 0 | kinase-Nluc reporter destabilization hit call ([5]; 2.5 µM) 0 | kinase-Nluc reporter destabilization hit call ([6]; 2.5 µM) 0 | kinase-Nluc reporter destabilization hit call ([7]; 2.5 µM) 0 | kinase-Nluc reporter destabilization hit call ([8]; 2.5 µM) 0 | kinase-Nluc reporter destabilization hit call ([9]; 2.5 µM) 0 | kinase-Nluc reporter destabilization hit call ([10]; 2.5 µM) 0 | kinase-Nluc reporter destabilization hit call ([11]; 2.5 µM) 0 | kinase-Nluc reporter destabilization hit call ([12]; 2.5 µM) 0 | kinase-Nluc reporter destabilization hit call ([13]; 2.5 µM) 0 | kinase-Nluc reporter destabilization hit call ([14]; 2.5 µM) 0 | kinase-Nluc reporter destabilization hit call ([15]; 2.5 µM) 0 | kinase-Nluc reporter destabilization hit call ([16]; 2.5 µM) 0 | kinase-Nluc reporter destabilization hit call ([18]; 2.5 µM) 0
0: number of time points ([19]; 2.5 µM) | number of time points ([20]; 2.5 µM)

N#CCC1(n2cc(-c3ncnc4[nH]ccc34)cn2)CN(C2CCN(C(=O)c3ccnc(C(F)(F)F)c3F)CC2)C1 [Itacitinib adipate]
0: number of time points ([19]; 10 µM) | number of time points ([20]; 10 µM)
inactive: kinase-Nluc reporter destabilization hit call ([1]; 10 µM) 0 | kinase-Nluc reporter destabilization hit call ([2]; 10 µM) 0 | kinase-Nluc reporter destabilization hit call ([3]; 10 µM) 0 | kinase-Nluc reporter destabilization hit call ([4]; 10 µM) 0 | kinase-Nluc reporter destabilization hit call ([5]; 10 µM) 0 | kinase-Nluc reporter destabilization hit call ([6]; 10 µM) 0 | kinase-Nluc reporter destabilization hit call ([7]; 10 µM) 0 | kinase-Nluc reporter destabilization hit call ([8]; 10 µM) 0 | kinase-Nluc reporter destabilization hit call ([9]; 10 µM) 0 | kinase-Nluc reporter destabilization hit call ([10]; 10 µM) 0 | kinase-Nluc reporter destabilization hit call ([11]; 10 µM) 0 | kinase-Nluc reporter destabilization hit call ([12]; 10 µM) 0 | kinase-Nluc reporter destabilization hit call ([13]; 10 µM) 0 | kinase-Nluc reporter destabilization hit call ([14]; 10 µM) 0 | kinase-Nluc reporter destabilization hit call ([15]; 10 µM) 0 | kinase-Nluc reporter destabilization hit call ([16]; 10 µM) 0 | kinase-Nluc reporter destabilization hit call ([17]; 10 µM) 0 | kinase-Nluc reporter destabilization hit call ([18]; 10 µM) 0

N#CCC1(n2cc(-c3ncnc4[nH]ccc34)cn2)CN(C2CCN(C(=O)c3ccnc(C(F)(F)F)c3F)CC2)C1 [Itacitinib]
inactive: kinase-Nluc reporter destabilization hit call ([1]; 10 µM) 0 | kinase-Nluc reporter destabilization hit call ([2]; 10 µM) 0 | kinase-Nluc reporter destabilization hit call ([3]; 10 µM) 0 | kinase-Nluc reporter destabilization hit call ([4]; 10 µM) 0 | kinase-Nluc reporter destabilization hit call ([5]; 10 µM) 0 | kinase-Nluc reporter destabilization hit call ([6]; 10 µM) 0 | kinase-Nluc reporter destabilization hit call ([7]; 10 µM) 0 | kinase-Nluc reporter destabilization hit call ([8]; 10 µM) 0 | kinase-Nluc reporter destabilization hit call ([9]; 10 µM) 0 | kinase-Nluc reporter destabilization hit call ([10]; 10 µM) 0 | kinase-Nluc reporter destabilization hit call ([11]; 10 µM) 0 | kinase-Nluc reporter destabilization hit call ([12]; 10 µM) 0 | kinase-Nluc reporter destabilization hit call ([13]; 10 µM) 0 | kinase-Nluc reporter destabilization hit call ([14]; 10 µM) 0 | kinase-Nluc reporter destabilization hit call ([15]; 10 µM) 0 | kinase-Nluc reporter destabilization hit call ([16]; 10 µM) 0 | kinase-Nluc reporter destabilization hit call ([17]; 10 µM) 0 | kinase-Nluc reporter destabilization hit call ([18]; 10 µM) 0
0: number of time points ([19]; 10 µM) | number of time points ([20]; 10 µM)

Cc1[nH]c(/C=C2\C(=O)Nc3ccc(F)cc32)c(C)c1C(=O)NCCN1CCCC1 [Toceranib]
inactive: kinase-Nluc reporter destabilization hit call ([1]; 2 µM) 0 | kinase-Nluc reporter destabilization hit call ([2]; 2 µM) 0 | kinase-Nluc reporter destabilization hit call ([3]; 2 µM) 0 | kinase-Nluc reporter destabilization hit call ([4]; 2 µM) 0 | kinase-Nluc reporter destabilization hit call ([5]; 2 µM) 0 | kinase-Nluc reporter destabilization hit call ([6]; 2 µM) 0 | kinase-Nluc reporter destabilization hit call ([7]; 2 µM) 0 | kinase-Nluc reporter destabilization hit call ([8]; 2 µM) 0 | kinase-Nluc reporter destabilization hit call ([9]; 2 µM) 0 | kinase-Nluc reporter destabilization hit call ([10]; 2 µM) 0 | kinase-Nluc reporter destabilization hit call ([11]; 2 µM) 0 | kinase-Nluc reporter destabilization hit call ([12]; 2 µM) 0 | kinase-Nluc reporter destabilization hit call ([13]; 2 µM) 0 | kinase-Nluc reporter destabilization hit call ([14]; 2 µM) 0 | kinase-Nluc reporter destabilization hit call ([15]; 2 µM) 0 | kinase-Nluc reporter destabilization hit call ([16]; 2 µM) 0 | kinase-Nluc reporter destabilization hit call ([17]; 2 µM) 0 | kinase-Nluc reporter destabilization hit call ([18]; 2 µM) 0
0: number of time points ([19]; 2 µM) | number of time points ([20]; 2 µM)

Reference: the supplement of paper PMC12823440, “Inhibitors supercharge kinase turnover through native proteolytic circuits” (Nature, 2025)
